Source: article PMC5833388
These are yes or no findings as the source states them, for the method shown. In cells and extracts the contact can be indirect. Some entries that bind do so weakly or less than the wild type.

Amino acid sequences for entries named in this document (tags omitted).
UniProt P23804: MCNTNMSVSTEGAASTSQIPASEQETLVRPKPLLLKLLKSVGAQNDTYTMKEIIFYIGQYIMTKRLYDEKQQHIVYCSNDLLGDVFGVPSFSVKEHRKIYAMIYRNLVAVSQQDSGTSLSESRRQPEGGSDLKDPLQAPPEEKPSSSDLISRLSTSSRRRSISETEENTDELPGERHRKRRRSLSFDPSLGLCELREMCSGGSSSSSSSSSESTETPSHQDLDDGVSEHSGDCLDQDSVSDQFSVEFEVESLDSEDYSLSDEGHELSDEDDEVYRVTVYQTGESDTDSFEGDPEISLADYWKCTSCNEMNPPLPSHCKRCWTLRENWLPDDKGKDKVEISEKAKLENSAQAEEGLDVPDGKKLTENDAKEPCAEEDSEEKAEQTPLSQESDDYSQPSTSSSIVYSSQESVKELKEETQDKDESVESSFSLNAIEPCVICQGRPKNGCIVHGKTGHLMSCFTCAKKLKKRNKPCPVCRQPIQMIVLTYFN

Target: Mdm2 (mouse (endogenous in MEFs)) (UniProt P23804)
Experiment: co-IP; endogenous proteins in lysates of Rps27l+/+;Trp53+/- and Rps27l-/-;Trp53+/- MEFs, untreated or irradiated at 5 Gy and harvested at indicated time points; immunoprecipitation with Mdm2 or Nbs1 antibody, then immunoblot

B1: Nbs1 (protein, UniProt Q9R207 1-751)
chain: MWKLLPAAGAAPGEPYRLLAGVEYVVGRKNCGILIENDQSISRNHAVLTVNFPVTSLSQTDEIPTLTIKDNSKYGTFVNEEKMQTGLSCTLKTGDRVTFGVFESKFRVEYEPLVVCSSCLDVSGKTVLNQAILQLGGLTANNWTEECTHLVMSAVKVTIKTICALICGRPIIKPEYFSEFLKAVESKKQPPDIESFYPPIDEPAIGSKSVDLSGRHERKQIFKGKTFVFLNAKQHKKLSSAVAFGGGEARLMAEDDEEEQSFFSAPGTCVVDVGITNTQLIISHSQKKWIHLIMDTLQRNGLRPIPEAEIGLAVIFMTTENYCNPQGQPCTELKTTTPGPSLSQVLSANGKIIPSAPVNMTTYVADTESEPADTCMPLSERPEEVKIPGLEQSSRKLSQETFNIKEAPKPSSKANNVASDTLVRGKTPSYQLSPMKFPVANKNKDWTSQQQQNSIKNYFQPCTRKRERDEDNPELSSCKSSRMELSCSLLEQTQPAGPSLWKSKEHQSQNATLDREADTSSVGGMDIELNRKSPDRKPLPTETLRPRKRKDVDLATEEEVLEELLRSTKPELAVQVKVEKQEADDTIRKKPRMDAERNRPLNGGSEPESNSALQEDEREKKDELQTESWSTKHEIANSDGLQDSSEELPRKLLLTEFRSLVVSNHNSTSRNLCVNECGPLKNFKKFKKATFPGAGKLPHIIGGSDLVGHHARKNTELEEWLKQEMEVQKQQAKEESLADDLFRYNPNVKRR
binding: binds
